These are literature values, as cited in US12168000B2, “Methods of treating pain” (Scilex Holding Company, priority 2020, dated 2024).

The conditions of this data set: between 5° C. and 40° C.; pH-independent at pH<9.

For the compound `Cc1ccc(-c2cc(C(F)(F)F)nn2-c2ccc(S(N)(=O)=O)cc2)cc1` [Celecoxib, 4-[5-(4-methylphenyl)-3-(trifluoromethyl)-1H-pyrazol-1-yl] benzenesulfonamide], the aqueous solubility entry is reported as “about 5 μg/ml”.
